# In patent US5306812A, “Immunoglobulin-binding polypeptides” (The Regents of the University of California, priority 1990, dated 1994):
# Not every detail of the peptide structures is certain; ends, links or a residue may be inferred. Where no end group is shown, it is not given here.
# Tested on: murine monoclonal antibodies
# Experiment: ELISA: binding of solid-phase CD4 peptide to murine monoclonal antibodies
# Set-up: species or system mouse
# Details: compared with p21-38 and p21-49 or with background
row,relative binding of CD4 peptides (FIG. 15),Sequence
1,bound with the above background values,"KKSIQFHWKNSNQIK [p 21-35, KKSIQ FHWKN SNQIK]"
2,bound with the above background values,"KKSIQFHWKNSNQIKI [p 21-36, KKSIQ FHWKN SNQIK I]"
